Where a protein sequence is shown, tags need not be part of it.
Target: T1, His6-Fis (UniProt P0A6R4)
T1 sequence (looked up, limits assumed): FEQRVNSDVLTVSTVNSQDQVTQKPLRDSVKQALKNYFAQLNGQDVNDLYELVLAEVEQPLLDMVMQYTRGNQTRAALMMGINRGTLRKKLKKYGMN
Assay: EMSA
Conditions: shift at 0.25 pmol Fis with 0.3 pmol probe in 10 uL, 20 mM Tris pH 7.5, 50 mM KCl, 1 mM DTT, 10% glycerol, 20 min at room temperature, 5% native acrylamide gel in TBE at 4 C, recombinant protein, protein details: N-terminal His6 (pQE80L), label: none (post-stained, Novel Green Plus), probe letters rebuilt from the primers and the genome

“GCGGCGGCCGCTCACTTGATTGCGAGTCGCGAGTTTTCATTGTTATCCCTCTGAAGTTCGTTTTTTACCATTTAGCCATAGTAAAAACATGAATTGTTTGATTTCGCGCATATTCGCTCATAATTCGAAAGTGAAACGTGATTTCATGCGTCATTCTGAACATTTCAACCATCGTATTTAATAATGTGTGCGGTAATTCACATTTAATTTATGAATGTTTTCTTAACATCGCGGCAACTCAAGAAACGGCAGGTTCTCCCACGGAATCAGGCTGTTAATCATAAATAAGACCACGGGCCACGGAGGCTTTCAAAGCTTCGC (double strand) [glpT upstream region probe]”: binds.

— article PMC10269713
